Assay results reported in publication PMC9950448.
Results are given in words; binding and its absence hold for the method and conditions named. Binding seen in cells or lysates may run through a third protein. Some entries that bind do so weakly or less than the wild type. For some of these results: Tags and fused reporters may be left off the sequences shown.

Protein sequences, listed by entry. Tags and fused reporters are not part of them.
UniProt Q99873: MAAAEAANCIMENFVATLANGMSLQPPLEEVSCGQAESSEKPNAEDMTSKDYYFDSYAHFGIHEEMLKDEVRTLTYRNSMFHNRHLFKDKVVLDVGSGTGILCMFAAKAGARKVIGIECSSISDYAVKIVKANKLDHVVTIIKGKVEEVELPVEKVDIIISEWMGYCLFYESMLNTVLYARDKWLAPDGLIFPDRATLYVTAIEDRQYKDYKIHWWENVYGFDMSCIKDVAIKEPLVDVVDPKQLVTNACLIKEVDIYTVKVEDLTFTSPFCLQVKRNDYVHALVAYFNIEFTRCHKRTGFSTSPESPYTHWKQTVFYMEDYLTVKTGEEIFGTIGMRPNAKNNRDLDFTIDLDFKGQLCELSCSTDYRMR
UniProt O14744: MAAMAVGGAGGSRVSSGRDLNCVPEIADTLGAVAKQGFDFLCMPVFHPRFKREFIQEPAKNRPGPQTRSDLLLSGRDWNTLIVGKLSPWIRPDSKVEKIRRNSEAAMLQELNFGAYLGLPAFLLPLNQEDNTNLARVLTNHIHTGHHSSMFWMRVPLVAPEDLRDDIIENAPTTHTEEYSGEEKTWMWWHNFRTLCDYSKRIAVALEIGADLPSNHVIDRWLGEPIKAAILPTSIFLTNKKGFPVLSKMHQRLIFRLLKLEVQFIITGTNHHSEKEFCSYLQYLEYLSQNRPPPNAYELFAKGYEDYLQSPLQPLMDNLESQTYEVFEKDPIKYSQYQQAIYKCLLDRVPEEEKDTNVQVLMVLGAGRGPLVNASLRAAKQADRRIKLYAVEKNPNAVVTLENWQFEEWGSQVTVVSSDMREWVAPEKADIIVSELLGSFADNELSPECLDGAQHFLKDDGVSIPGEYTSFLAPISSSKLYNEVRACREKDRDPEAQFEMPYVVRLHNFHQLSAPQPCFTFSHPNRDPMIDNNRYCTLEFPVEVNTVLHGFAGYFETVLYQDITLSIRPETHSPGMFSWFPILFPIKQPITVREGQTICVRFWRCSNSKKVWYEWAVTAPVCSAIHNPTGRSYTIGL

Assays:
[1] = molecular target: T1, FLAG-PHGDH WT (phosphoglycerate dehydrogenase) (human) (UniProt O43175); assay: co-IP; FLAG-PHGDH co-expressed with different GFP-PRMTs in HEK293T cells
T1 sequence: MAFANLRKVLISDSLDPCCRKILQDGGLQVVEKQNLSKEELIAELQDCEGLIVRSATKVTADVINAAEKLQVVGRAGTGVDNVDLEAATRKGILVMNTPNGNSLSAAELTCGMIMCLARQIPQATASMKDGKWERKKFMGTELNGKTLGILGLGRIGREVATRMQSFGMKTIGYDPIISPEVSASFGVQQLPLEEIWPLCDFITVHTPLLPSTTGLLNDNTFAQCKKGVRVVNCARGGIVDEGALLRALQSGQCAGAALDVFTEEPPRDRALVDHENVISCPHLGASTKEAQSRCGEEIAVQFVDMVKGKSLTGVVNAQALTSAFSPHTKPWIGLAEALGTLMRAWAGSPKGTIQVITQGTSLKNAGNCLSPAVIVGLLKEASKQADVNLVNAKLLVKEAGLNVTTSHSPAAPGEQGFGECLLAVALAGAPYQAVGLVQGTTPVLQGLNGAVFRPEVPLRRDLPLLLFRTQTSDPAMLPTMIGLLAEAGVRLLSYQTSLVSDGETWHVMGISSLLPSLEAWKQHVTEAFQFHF

[2] = molecular target: T1, FLAG-PHGDH WT (phosphoglycerate dehydrogenase) (human); assay: co-IP; FLAG-PHGDH WT or point mutants co-expressed with HA-PRMT1 in HEK293T cells; FLAG-PHGDH immunopurified with FLAG beads, immunoblotting with HA antibody
[3] = molecular target: T2, endogenous PHGDH (human (endogenous in HEK293T, Huh7, PLC/PRF/5)) (UniProt O43175); assay: co-IP; reciprocal co-IP of endogenous PHGDH and PRMT1 in HEK293T, Huh7 and PLC/PRF/5 cells; IgG as negative control; NP-40 buffer (50 mM Tris-HCl pH 7.4, 150 mM NaCl, 1% NP-40, 1 mM EDTA); also with cells treated with the methylated or nonmethylated TAT peptides
T2 sequence: T1 sequence

binding [1] | Substance | further results
binds | GFP-PRMT1 (from UniProt Q99873 1-371) (enzyme) | 
 | HA-PRMT1 (from UniProt Q99873 1-371) (enzyme) | binding [2]: binds
 | endogenous PRMT1 (protein arginine methyltransferase 1) (from UniProt Q99873 1-371) (enzyme) | binding [3]: binds
no binding | GFP-PRMT5 (from UniProt O14744 1-637) (enzyme) | 
